Test results: publication PMC2664923
Positions count from the first letter of the chain named. These are yes or no findings as the source states them, for the method shown. Binding seen in cells or lysates may run through a third protein. Some entries that bind do so weakly or less than the wild type. For some of these results: Tags and fused reporters may be left off the sequences shown.

Tests used:
[1] = biological target: T1, GST-Prep1 Y-LL mutant (Y59, L66 and L67 to alanine) (mouse) (UniProt O70477); assay: pull-down; GST-fusion protein beads with cytosolic ovarian extracts; pulled-down endogenous protein detected by immunoblot; GST alone as negative control; only the target purified
T1 sequence: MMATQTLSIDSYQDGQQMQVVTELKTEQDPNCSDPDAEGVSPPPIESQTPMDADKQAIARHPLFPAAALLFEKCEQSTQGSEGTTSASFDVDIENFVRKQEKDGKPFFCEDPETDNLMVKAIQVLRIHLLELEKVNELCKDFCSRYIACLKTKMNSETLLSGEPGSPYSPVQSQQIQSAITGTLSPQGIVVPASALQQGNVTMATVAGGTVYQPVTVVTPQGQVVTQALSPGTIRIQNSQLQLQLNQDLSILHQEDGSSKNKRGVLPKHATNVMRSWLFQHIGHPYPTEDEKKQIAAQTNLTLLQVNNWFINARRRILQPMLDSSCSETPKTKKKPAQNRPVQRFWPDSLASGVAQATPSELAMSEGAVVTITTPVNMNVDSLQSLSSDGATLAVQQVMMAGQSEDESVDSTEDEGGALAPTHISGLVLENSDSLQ

[2] = biological target: T2, Prep1-GST fusion protein (mouse) (UniProt O70477); assay: as above
T2 sequence: T1 sequence with A59Y, A66L, A67L

[3] = biological target: T3, endogenous Prep1 from mouse ovarian cytosolic extracts (mouse (endogenous in mouse ovary)) (UniProt O70477); assay: co-IP; anti-Prep1 antibody beads on cytosolic ovarian cell extract; IP buffer 20 mM HEPES-KOH pH 7.6, 200 mM KCl, 0.5 mM EDTA, 10% glycerol, 0.5% Triton X-100; 1 h at 4°C; blot for 4EHP; no difference with or without RNase A (data not shown)
T3 sequence: T1 sequence with A59Y, A66L, A67L

[4] = biological target: T4, GST-Prep1 Y-L mutant (Y59A and L66A) (mouse) (UniProt O70477); assay: pull-down; GST-Prep1 Y-L mutant with 4EHP; data not shown; source of 4EHP not told; only the target purified
T4 sequence: T1 sequence with A67L

[5] = biological target: T2, Prep1-GST fusion protein (mouse); assay: pull-down; GST-fusion protein beads with in vitro-translated 35S-Met-labelled protein; GST beads as negative control; only the target purified
[6] = biological target: T5, 4EHP-GST fusion protein (mouse) (UniProt Q8BMB3); assay: as above
T5 sequence: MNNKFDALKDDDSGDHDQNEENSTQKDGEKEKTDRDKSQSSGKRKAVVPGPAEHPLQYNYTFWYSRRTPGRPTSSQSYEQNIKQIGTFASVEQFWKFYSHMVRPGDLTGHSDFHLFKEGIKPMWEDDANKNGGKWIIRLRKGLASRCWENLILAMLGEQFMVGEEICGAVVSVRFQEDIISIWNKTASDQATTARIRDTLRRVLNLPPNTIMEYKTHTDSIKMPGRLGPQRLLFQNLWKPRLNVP

[7] = biological target: T5, 4EHP-GST fusion protein (mouse); assay: pull-down; GST-fusion protein beads with cytosolic ovarian extracts; pulled-down endogenous protein detected by immunoblot; GST alone as negative control; only the target purified

B1: endogenous 4EHP (eukaryotic translation initiation factor 4E homolog protein) from mouse ovarian cytosolic extracts (protein, UniProt Q8BMB3 1-245)
chain: T5 sequence
- binding [1]: binds weakly
- binding [2]: binds
- binding [3]: binds
- binding [4]: binds

B2: in vitro-translated 35S-Met-4EHP (protein, UniProt Q8BMB3 1-245)
chain: T5 sequence
modifications: 35S-methionine label
- binding [5]: binds

B3: in vitro-translated 35S-Met-Prep1 (protein, UniProt O70477 1-436)
chain: T1 sequence with A59Y, A66L, A67L
modifications: 35S-methionine label
- binding [6]: binds

B4: endogenous Prep1 from mouse ovarian cytosolic extracts (protein, UniProt O70477 1-436)
chain: T1 sequence with A59Y, A66L, A67L
- binding [7]: binds
